Values quoted from earlier work, collected in patent US20110039314A1, “Composition for Catalytic Amide Production and Uses Thereof” (LOYOLA UNIVERSITY OF CHICAGO, priority 2009, published 2011).
At least one compound was matched to its structure with a doubt left.

Protein sequences, listed by entry. Tags and fused reporters are not part of them.
UniProt J9PBS0, entry or part of it: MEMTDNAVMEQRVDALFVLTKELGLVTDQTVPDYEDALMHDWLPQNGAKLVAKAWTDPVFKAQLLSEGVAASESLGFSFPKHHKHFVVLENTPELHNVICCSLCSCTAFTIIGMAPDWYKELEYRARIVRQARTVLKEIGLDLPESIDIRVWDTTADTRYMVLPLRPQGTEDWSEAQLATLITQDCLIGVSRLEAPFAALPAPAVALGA
UniProt J9PBS1, entry or part of it: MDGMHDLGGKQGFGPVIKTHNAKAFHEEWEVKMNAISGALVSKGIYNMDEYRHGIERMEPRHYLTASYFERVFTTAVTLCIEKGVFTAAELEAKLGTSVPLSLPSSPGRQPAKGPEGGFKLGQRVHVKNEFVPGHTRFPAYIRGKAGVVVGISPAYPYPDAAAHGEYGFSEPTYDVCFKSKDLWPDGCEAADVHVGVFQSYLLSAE

Target: Fe-type nitrile hydratase from Comamonas testosteroni Ni1 (CtNHase) (Comamonas testosteroni, UniProt J9PBS0+J9PBS1)
Details: previously reported value (ref. 34); cited from earlier work

## N#CCCCCC(=O)O [cyanovaleric acid]
  kcat: 0.26 s⁻¹
